Laboratory results as given in article PMC5810440, “The Origins of Specificity in the Microcin-Processing Protease TldD/E” (Structure(London, England:1993), 2017).
Results are given in words; binding and its absence hold for the method and conditions named. Some results given as binding are weak or reduced against the parent protein; the word gives no strength. Sequences can lack the tags named with a protein.

Target: T1, E. coli TldD/E heterodimer (wild-type, co-purified TldD-His/E complex) (E. coli) (UniProt P0AGG8+P0AFK0)
T1 sequence 1: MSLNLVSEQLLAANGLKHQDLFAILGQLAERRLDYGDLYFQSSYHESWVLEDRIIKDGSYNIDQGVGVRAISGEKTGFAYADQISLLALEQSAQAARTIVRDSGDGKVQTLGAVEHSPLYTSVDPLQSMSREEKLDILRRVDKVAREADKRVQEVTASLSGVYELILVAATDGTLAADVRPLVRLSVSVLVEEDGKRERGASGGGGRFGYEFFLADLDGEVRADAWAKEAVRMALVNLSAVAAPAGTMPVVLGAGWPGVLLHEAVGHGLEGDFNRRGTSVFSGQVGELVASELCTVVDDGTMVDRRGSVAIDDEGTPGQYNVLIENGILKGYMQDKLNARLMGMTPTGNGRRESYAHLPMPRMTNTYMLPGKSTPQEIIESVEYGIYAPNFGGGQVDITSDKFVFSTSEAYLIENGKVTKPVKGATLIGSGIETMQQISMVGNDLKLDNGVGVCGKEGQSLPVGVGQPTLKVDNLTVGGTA
T1 sequence 2: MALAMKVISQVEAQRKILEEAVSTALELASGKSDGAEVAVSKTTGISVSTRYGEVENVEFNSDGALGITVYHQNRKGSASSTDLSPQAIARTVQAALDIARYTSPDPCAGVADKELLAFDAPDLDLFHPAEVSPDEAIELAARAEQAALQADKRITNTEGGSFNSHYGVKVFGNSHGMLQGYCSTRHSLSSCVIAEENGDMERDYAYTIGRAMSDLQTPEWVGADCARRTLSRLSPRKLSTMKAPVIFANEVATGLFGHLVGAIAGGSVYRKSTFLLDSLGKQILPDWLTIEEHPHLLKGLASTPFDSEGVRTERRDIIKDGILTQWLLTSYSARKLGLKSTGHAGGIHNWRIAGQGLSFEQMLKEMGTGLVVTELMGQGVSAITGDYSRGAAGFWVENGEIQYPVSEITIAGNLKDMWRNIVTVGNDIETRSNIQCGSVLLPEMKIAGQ
Experiment: crystal structure; co-crystallisation of wild-type TldD/E with added peptide ligand at 2.5 mM, condition 2 (20% PEG 1500, 0.1 M MMT pH 8.0), microseeding; both purified

DRVYIHPF (central (Tyr-Ile) peptide bond replaced with a non-cleavable methylene bond) [Angiotensin II analogue (DRVY-CH2-IHPF)]
binding: binds
